# PMC6805484
# System: His-MKRN1 wt + His-PABPC1
# Assay: pull-down
# Conditions: PABPC1 does not increase MKRN1 recovery on control RNA; Binding: 50 mM Tris-HCl pH 7.4, 500 mM KCl, 12.5 mM MgCl2, 1% Triton X-100, 1 h, 4 °C; wash: 200 mM NaCl, 10 mM MgCl2, 50 mM HEPES pH 7.4, 0.5% Igepal CA630; recombinant protein; protein details: N-His6,N-His6; label: 3' biotin
sequence,measurement,value
GGAAAUAAACUGUAGAGUUCCACGGAGCGACCCACCGAGCGC [Control RNA (SRSF4 3' UTR end + V20)],binding result,binds more weakly

# For at least one entry, the source does not settle the construct or the ends of the probe. Weaker means in comparison with the reference protein, sequence or condition of that experiment.
